Experimental data as given in the supplement of paper PMC10849652.
Some of the results follow.

Chains of the proteins cited; added tags and fusions are not shown. Lines headed by an entry give the natural chain unless they say otherwise; changes in a name come on top.
UniProt Q8IV08: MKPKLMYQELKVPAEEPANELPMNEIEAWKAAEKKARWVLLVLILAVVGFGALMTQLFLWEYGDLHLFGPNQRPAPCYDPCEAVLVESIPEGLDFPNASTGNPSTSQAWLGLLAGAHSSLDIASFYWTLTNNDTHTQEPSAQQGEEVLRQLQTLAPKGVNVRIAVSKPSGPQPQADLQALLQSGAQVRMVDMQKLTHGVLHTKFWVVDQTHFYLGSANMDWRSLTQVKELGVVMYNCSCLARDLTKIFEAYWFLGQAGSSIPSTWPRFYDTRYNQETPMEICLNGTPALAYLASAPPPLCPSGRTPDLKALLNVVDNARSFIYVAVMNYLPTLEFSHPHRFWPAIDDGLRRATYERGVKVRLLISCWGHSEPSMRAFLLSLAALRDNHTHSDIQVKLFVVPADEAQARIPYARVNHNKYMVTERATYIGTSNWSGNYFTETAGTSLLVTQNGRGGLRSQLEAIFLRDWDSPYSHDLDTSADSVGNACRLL
UniProt A6NDG6: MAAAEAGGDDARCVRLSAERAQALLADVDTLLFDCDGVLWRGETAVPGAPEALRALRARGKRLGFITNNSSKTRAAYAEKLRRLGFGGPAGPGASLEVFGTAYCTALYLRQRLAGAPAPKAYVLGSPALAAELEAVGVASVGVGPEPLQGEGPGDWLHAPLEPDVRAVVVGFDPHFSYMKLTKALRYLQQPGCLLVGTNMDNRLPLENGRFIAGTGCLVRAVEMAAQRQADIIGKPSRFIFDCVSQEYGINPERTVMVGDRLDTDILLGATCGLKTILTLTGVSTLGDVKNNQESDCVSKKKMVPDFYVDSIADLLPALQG
UniProt Q86T03: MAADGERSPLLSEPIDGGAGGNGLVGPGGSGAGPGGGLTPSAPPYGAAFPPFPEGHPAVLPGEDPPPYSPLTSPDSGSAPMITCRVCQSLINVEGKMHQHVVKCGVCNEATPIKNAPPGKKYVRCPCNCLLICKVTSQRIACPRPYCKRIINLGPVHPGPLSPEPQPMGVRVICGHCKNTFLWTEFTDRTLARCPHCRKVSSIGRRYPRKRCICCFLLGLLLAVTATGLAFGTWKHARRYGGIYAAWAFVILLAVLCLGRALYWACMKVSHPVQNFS
UniProt P07205: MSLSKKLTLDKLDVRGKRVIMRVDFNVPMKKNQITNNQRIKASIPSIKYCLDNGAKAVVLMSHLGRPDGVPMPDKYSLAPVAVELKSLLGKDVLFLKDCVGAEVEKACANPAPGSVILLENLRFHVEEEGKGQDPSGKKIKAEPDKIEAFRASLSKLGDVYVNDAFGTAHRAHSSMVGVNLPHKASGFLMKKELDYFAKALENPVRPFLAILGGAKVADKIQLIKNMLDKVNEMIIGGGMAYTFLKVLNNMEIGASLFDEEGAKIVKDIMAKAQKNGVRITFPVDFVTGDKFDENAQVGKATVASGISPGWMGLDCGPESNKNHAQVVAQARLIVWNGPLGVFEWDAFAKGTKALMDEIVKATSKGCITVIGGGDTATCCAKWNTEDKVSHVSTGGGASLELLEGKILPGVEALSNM
UniProt O95336: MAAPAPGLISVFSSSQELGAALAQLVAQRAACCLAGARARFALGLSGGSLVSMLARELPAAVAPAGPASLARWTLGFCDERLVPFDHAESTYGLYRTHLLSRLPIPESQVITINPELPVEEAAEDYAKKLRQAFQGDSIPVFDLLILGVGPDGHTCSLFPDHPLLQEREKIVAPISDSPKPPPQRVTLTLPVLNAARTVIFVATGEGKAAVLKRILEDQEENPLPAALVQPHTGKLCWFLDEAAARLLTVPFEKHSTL
UniProt O95394: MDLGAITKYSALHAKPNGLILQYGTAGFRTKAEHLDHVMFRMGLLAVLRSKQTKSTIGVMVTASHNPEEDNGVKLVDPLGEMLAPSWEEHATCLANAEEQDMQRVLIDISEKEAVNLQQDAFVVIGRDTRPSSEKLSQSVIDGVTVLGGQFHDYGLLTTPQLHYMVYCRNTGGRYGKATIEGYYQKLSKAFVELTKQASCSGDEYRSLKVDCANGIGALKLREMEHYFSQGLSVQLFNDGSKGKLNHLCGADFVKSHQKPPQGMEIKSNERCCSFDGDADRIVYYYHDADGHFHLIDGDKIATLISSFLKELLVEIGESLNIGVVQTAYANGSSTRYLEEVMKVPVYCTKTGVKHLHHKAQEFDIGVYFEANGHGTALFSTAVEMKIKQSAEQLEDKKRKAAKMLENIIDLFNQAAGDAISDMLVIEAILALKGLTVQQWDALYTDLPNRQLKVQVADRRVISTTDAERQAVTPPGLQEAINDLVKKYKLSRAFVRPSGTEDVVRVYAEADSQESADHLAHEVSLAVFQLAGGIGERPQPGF
UniProt Q92643: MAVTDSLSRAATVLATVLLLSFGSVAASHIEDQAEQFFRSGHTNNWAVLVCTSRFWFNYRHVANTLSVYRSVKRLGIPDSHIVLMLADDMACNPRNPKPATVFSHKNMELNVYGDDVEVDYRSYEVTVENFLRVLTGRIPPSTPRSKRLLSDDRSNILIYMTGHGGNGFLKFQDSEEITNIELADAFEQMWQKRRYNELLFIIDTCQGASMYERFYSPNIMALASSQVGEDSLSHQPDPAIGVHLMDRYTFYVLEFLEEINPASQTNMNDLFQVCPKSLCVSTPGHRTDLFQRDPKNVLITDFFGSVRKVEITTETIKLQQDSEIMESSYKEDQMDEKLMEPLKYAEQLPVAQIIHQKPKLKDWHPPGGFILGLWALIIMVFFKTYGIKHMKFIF
UniProt Q8NEB9, whole entry, looked up: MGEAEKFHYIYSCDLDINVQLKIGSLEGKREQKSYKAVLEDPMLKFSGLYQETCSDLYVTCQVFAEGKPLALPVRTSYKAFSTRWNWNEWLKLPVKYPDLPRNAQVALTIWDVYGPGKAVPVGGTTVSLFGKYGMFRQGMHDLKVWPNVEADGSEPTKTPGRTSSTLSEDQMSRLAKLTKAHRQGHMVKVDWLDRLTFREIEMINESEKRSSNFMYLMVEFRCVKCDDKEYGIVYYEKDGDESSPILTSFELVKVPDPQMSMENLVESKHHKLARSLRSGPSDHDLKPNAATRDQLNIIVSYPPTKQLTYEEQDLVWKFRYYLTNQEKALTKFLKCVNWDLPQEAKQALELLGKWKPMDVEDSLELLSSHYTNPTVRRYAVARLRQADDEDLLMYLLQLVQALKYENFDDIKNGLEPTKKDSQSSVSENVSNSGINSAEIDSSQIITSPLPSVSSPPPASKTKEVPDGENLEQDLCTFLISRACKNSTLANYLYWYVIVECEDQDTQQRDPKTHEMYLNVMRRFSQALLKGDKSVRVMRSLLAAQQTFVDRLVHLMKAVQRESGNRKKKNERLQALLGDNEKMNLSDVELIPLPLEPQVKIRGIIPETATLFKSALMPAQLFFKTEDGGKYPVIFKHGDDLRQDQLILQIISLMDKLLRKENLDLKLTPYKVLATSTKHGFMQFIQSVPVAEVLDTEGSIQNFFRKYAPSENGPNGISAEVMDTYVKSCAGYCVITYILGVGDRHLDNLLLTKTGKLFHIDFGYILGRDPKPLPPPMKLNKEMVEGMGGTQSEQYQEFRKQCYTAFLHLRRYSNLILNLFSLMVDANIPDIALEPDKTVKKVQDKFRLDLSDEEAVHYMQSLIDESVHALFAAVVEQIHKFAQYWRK
UniProt Q16513: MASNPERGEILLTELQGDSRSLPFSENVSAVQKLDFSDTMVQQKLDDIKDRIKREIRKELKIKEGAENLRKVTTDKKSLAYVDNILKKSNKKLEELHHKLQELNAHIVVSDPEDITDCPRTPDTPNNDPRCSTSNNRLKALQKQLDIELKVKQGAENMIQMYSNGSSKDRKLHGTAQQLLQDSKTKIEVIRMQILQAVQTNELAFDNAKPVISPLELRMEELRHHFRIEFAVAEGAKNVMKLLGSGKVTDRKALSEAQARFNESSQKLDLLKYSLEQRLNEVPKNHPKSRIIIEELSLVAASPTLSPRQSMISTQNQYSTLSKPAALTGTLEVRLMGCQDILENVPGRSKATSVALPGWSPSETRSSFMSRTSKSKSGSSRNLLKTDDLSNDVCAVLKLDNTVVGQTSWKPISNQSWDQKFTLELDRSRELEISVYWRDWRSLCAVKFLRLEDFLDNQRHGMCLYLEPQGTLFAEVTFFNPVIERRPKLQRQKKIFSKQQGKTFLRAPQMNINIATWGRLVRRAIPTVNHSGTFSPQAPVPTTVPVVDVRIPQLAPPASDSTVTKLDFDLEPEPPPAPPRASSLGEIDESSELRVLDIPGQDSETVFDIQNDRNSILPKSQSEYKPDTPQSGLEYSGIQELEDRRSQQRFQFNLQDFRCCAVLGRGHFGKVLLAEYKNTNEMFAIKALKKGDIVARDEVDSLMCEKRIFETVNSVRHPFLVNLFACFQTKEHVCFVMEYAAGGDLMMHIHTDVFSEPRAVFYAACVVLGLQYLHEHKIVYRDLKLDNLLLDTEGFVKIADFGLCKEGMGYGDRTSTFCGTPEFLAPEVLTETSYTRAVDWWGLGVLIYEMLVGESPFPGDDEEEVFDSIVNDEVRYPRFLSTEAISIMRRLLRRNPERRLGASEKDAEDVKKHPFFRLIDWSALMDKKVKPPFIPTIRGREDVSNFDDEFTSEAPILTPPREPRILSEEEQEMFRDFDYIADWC
UniProt P27986, whole entry, looked up: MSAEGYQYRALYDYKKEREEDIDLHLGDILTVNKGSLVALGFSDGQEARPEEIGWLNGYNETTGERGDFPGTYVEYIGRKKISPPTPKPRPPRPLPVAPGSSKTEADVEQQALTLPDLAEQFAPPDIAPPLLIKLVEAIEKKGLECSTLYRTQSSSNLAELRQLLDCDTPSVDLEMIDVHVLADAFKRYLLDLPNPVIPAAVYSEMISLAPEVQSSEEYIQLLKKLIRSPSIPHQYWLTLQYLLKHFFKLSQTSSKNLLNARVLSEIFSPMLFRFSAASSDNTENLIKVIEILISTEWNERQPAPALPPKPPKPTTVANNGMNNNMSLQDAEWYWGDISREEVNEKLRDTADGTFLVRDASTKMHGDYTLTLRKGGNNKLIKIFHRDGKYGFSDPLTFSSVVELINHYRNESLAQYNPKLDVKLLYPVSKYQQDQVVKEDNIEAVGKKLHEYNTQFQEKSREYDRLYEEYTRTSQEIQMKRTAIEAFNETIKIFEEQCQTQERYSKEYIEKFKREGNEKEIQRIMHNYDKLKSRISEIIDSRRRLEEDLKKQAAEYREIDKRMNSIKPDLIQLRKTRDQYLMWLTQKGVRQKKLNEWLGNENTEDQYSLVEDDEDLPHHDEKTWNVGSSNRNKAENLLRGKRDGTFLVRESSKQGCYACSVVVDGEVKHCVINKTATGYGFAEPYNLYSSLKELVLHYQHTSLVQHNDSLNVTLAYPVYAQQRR
UniProt Q13393: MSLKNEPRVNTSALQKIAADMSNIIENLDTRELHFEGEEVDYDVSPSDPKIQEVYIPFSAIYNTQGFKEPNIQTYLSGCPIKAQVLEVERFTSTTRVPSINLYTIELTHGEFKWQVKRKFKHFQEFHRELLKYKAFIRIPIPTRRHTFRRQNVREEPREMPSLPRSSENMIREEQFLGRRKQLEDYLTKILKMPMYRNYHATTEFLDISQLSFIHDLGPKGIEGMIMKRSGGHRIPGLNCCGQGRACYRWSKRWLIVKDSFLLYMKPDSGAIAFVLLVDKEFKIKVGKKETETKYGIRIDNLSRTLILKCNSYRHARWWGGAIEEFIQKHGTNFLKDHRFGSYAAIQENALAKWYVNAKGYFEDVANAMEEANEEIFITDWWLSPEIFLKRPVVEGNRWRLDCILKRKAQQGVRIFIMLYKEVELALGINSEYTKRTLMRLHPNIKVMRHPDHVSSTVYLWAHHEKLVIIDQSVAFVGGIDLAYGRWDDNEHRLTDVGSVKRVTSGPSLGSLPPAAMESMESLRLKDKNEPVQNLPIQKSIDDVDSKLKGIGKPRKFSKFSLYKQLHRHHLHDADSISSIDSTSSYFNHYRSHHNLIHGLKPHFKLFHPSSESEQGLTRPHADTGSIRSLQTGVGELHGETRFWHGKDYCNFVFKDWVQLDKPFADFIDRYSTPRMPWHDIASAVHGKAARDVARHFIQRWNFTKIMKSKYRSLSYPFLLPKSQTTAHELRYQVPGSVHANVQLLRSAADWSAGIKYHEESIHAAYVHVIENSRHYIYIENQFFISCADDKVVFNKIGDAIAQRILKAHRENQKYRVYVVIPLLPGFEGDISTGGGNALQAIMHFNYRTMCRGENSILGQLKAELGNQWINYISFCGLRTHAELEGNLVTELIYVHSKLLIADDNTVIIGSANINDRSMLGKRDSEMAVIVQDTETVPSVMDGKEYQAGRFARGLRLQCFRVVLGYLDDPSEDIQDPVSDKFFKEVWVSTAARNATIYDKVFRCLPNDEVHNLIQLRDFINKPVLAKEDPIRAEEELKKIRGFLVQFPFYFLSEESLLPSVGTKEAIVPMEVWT
UniProt Q9BZM1: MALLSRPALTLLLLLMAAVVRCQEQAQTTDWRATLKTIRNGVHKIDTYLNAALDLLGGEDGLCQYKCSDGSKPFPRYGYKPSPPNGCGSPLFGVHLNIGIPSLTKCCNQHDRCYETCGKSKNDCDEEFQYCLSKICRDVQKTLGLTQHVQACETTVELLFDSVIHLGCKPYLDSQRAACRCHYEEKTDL

How the values were obtained:
Experiment in all cases: log2 fold change, soluble protein after heating vs DMSO (PISA); higher = thermal stabilisation; K562 cells, 10 uM, 30 min; active = over 0.2 and 3.5 SD of the protein, either way, in both replicates (recomputed)
[1] = compound: NC(=O)Nc1cc(-c2cccc(F)c2)sc1C(=O)N[C@H]1CCCNC1
Summary of the method: (§1)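 K562 cells at 2×10^6 cells/mL were treated with 10 μM compound for 30 min. Aliquots were heated for 3 min across 48°C-58°C, pooled, and extracted in PBS with 0.5% NP-40 at 4°C; soluble protein was the supernatant after 21,000xg for 90 min. Soluble protein was quantified by TMTpro 16plex LC-MS/MS with channel sums equalised, and reported as log2 fold change in thermal stability against DMSO controls, with values from duplicates.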

[2] = compound: NC(=O)c1cnc(N[C@@H]2CCCC[C@@H]2N)nc1Nc1cccc(-n2nccn2)c1
Summary of the method: as §1

[3] = compound: NC1(c2ccc(-c3nc4ccn5c(=O)[nH]nc5c4cc3-c3ccccc3)cc2)CCC1
Summary of the method: as §1

[4] = compound: NCC(=O)Nc1ccc(-n2nc(C(F)(F)F)cc2-c2ccc3c(ccc4ccccc43)c2)cc1
Summary of the method: as §1

[5] = compound: Nc1ccccc1NC(=O)c1ccc(CNC(=O)OCc2cccnc2)cc1 [entinostat]
Summary of the method: as §1

[6] = compound: O=C(CCCCCCC(=O)Nc1ccccc1)NO [vorinostat]
Summary of the method: as §1

[7] = compound: O=C(CCCCCCNC(=O)c1cnc(N(c2ccccc2)c2ccccc2Cl)nc1)NO [citarinostat]
Summary of the method: as §1

[8] = compound: O=C(O)c1ccc2c(c1)nc(Nc1cccc(Cl)c1)c1ccncc12 [silmitasertib]
Summary of the method: as §1

[9] = compound: O=C1NC(=O)C(c2cnc3ccccn23)=C1c1cn2c3c(cc(F)cc13)CN(C(=O)N1CCCCC1)CC2
Summary of the method: as §1

[10] = compound: c1cc(OCCN2CCCCC2)cc(-c2n[nH]c3ccc(-c4nnc[nH]4)cc23)c1
Summary of the method: as §1

Measured: log2 fold change

PLD3 (UniProt Q8IV08)
inactive: [1] 0.008 | [2] -0.005 | [3] -0.177 | [4] -0.051 | [5] 0.009 | [6] 0.022 | [7] 0.034 | [8] 0.006 | [9] 0.024 | [10] 0.067

PGP (UniProt A6NDG6)
inactive: [1] -0.005 | [2] 0.011 | [3] 0.024 | [4] 0.021 | [5] -0.025 | [6] -0.009 | [7] -0.017 | [8] -0.02 | [9] -0.02 | [10] -0.006

PIP4P1 isoform 2 (UniProt Q86T03)
inactive: [1] 0.012 | [2] 0.086 | [3] -0.326 | [4] 0.095 | [5] 0.042 | [6] -0.019 | [7] 0.01 | [8] 0.054 | [9] 0.043 | [10] -0.031

PIP4K2B (UniProt P78356)
inactive: [1] 0.06 | [2] 0.083 | [3] -0.053 | [4] 0.118 | [5] 0.096 | [6] 0.053 | [7] -0.009 | [8] 0.202 | [9] 0.044 | [10] 0.069

PGK2 (UniProt P07205)
active: [9] -0.532
inactive: [1] -0.056 | [2] -0.032 | [3] -0.038 | [4] -0.134 | [5] 0.021 | [6] -0.056 | [7] -0.121 | [8] 0.172 | [10] -0.012

2 successive entries from above, quoted:
PIP4P1 isoform 2 (UniProt Q86T03)
inactive: [1] 0.012 | [2] 0.086 | [3] -0.326 | [4] 0.095 | [5] 0.042 | [6] -0.019 | [7] 0.01 | [8] 0.054 | [9] 0.043 | [10] -0.031

PIP4K2B (UniProt P78356)
inactive: [1] 0.06 | [2] 0.083 | [3] -0.053 | [4] 0.118 | [5] 0.096 | [6] 0.053 | [7] -0.009 | [8] 0.202 | [9] 0.044 | [10] 0.069

Going on with the list:

PHF23 (UniProt Q9BUL5)
inactive: [1] -0.002 | [2] 0.011 | [3] 0.015 | [4] -0.026 | [5] -0.074 | [6] 0.014 | [7] -0.064 | [8] -0.056 | [9] 0.012 | [10] -0.023

PGLS (UniProt O95336)
inactive: [1] 0.065 | [2] 0.143 | [3] 0 | [4] 0.098 | [5] 0.003 | [6] -0.089 | [7] -0.019 | [8] -0.025 | [9] -0.095 | [10] -0.025

PGM3 isoform 4 (UniProt O95394)
inactive: [1] -0.039 | [2] -0.118 | [3] -0.147 | [4] -0.063 | [5] 0.015 | [6] 0.061 | [7] 0.046 | [8] -0.012 | [9] -0.008 | [10] -0.024

PIGK (UniProt Q92643)
inactive: [1] -0.031 | [2] 0.005 | [3] -0.046 | [4] -0.01 | [5] 0.023 | [6] -0.077 | [7] 0.034 | [8] 0.016 | [9] -0.086 | [10] -0.043

PHB (UniProt P35232)
inactive: [1] -0.026 | [2] -0.055 | [3] -0.005 | [4] -0.036 | [5] 0.049 | [6] -0.026 | [7] 0.022 | [8] 0.004 | [9] -0.052 | [10] -0.035

PFN3 (UniProt P60673)
inactive: [1] -0.021 | [2] -0.59 | [3] -0.856 | [4] 0.002 | [5] 0.065 | [6] 0.092 | [7] -0.282 | [8] -0.128 | [9] -0.281 | [10] -0.158

PFKFB3 isoform 4 (UniProt Q16875)
inactive: [1] 0.068 | [2] 0.024 | [3] -0.075 | [4] 0.017 | [5] 0.046 | [6] 0.025 | [7] 0.107 | [8] -0.055 | [9] -0.03 | [10] -0.027

PIEZO1 (UniProt Q92508)
inactive: [1] -0.138 | [2] -0.004 | [3] -0.014 | [4] 0.013 | [5] -0.057 | [6] -0.067 | [7] 0.006 | [8] 0.007 | [9] 0.032 | [10] -0.043

PKN1 isoform 2 (UniProt Q16512)
inactive: [2] -0.141 | [3] -0.118 | [4] -0.128 | [5] 0.039 | [6] 0.042 | [7] 0.024 | [8] 0.024 | [9] -0.131 | [10] -0.157
active: [1] -0.508

PIK3C3 (UniProt Q8NEB9)
inactive: [1] 0.068 | [2] 0.117 | [3] -0.018 | [4] -0.015 | [5] -0.03 | [6] -0.038 | [7] -0.038 | [8] 0.051 | [9] 0.078 | [10] -0.041

PHKB isoform 3 (UniProt Q93100)
inactive: [1] 0.012 | [2] -0.051 | [3] -0.123 | [4] -0.037 | [5] -0.032 | [6] 0.022 | [7] 0.022 | [8] 0.049 | [9] -0.025 | [10] 0.096

PHACTR4 isoform 2 (UniProt Q8IZ21)
inactive: [1] -0.056 | [2] 0 | [3] 0.057 | [4] -0.007 | [5] -0.031 | [6] -0.019 | [7] 0.024 | [8] -0.012 | [9] -0.027 | [10] -0.004

PKN2 (UniProt Q16513)
inactive: [1] -0.055 | [2] -0.134 | [3] -0.051 | [4] -0.021 | [5] 0.105 | [6] 0.023 | [7] 0.073 | [8] 0.01 | [9] -0.008 | [10] -0.086

PIGS (UniProt Q96S52)
inactive: [1] -0.02 | [2] -0.024 | [3] -0.045 | [4] -0.025 | [5] 0.008 | [6] -0.02 | [7] 0.02 | [8] 0.002 | [9] -0.005 | [10] -0.023

PIK3R1 (UniProt P27986)
inactive: [1] -0.08 | [2] -0.056 | [3] -0.016 | [4] -0.021 | [5] -0.026 | [6] 0.029 | [7] 0.007 | [8] -0.013 | [9] 0.028 | [10] 0.126

PLD1 (UniProt Q13393)
inactive: [1] -0.1 | [2] -0.224 | [3] -0.182 | [4] -0.035 | [5] 0.048 | [6] 0.042 | [7] 0.146 | [8] 0.098 | [9] -0.012 | [10] -0.243

PHKA1 (UniProt P46020)
inactive: [1] 0.03 | [2] 0.046 | [3] -0.202 | [5] -0.005 | [6] 0.013 | [7] 0.128 | [8] 0.004 | [9] 0.027 | [10] -0.068

PIKFYVE (UniProt Q9Y2I7)
inactive: [1] 0.029 | [2] -0.055 | [3] -0.256 | [4] -0.072 | [5] 0.09 | [6] 0.021 | [7] -0.047 | [8] 0.006 | [9] -0.069 | [10] -0.08

PLA2G12A (UniProt Q9BZM1)
inactive: [1] -0.014 | [2] -0.149 | [3] -0.154 | [5] 0.165 | [6] -0.004 | [7] 0.188 | [8] 0.114 | [9] -0.137 | [10] -0.142

PLCL1 (UniProt Q15111)
active: [9] -0.854
inactive: [1] 0.05 | [2] -0.035 | [3] -0.069 | [4] -0.01 | [5] 0.043 | [6] -0.012 | [7] 0.02 | [8] -0.475 | [10] 0.05

PIGA (UniProt P37287)
inactive: [1] 0.063 | [2] 0.099 | [3] -0.066 | [4] -0.046 | [5] -0.067 | [6] -0.085 | [7] 0 | [8] 0.029 | [9] -0.065 | [10] -0.049

PHGDH (UniProt O43175)
inactive: [1] 0.038 | [2] -0.009 | [3] 0.013 | [4] 0.015 | [5] 0.002 | [6] -0.027 | [7] 0.025 | [8] -0.055 | [9] 0 | [10] 0.011

PI4K2B (UniProt Q8TCG2)
inactive: [1] 0.092 | [3] -0.08 | [4] -0.069 | [5] 0.066 | [6] -0.021 | [7] 0.075 | [8] 0.051 | [10] 0.111
active: [2] 0.704

PLCD1 isoform 2 (UniProt P51178)
inactive: [1] 0.02 | [2] -0.116 | [3] -0.168 | [4] -0.003 | [5] 0.063 | [6] 0.118 | [7] 0.006 | [8] -0.082 | [9] -0.014 | [10] -0.039
